Experimental data as given in paper PMC7282668.
These are yes or no findings as the source states them, for the method shown. In cells and extracts the contact can be indirect. Where a sequence is shown, tags or fusion partners need not be part of it.

Tests used:
Experiment in all cases: split reporter; BiFC with split YFP fusions in N. benthamiana leaf epidermis after Agrobacterium infiltration; confocal microscopy
Details in all cases: remark: other sources report otherwise
[1] = target: T1, SWN, BiFC split YFP fusion (Arabidopsis thaliana), Q9ZSM8
T1 chain: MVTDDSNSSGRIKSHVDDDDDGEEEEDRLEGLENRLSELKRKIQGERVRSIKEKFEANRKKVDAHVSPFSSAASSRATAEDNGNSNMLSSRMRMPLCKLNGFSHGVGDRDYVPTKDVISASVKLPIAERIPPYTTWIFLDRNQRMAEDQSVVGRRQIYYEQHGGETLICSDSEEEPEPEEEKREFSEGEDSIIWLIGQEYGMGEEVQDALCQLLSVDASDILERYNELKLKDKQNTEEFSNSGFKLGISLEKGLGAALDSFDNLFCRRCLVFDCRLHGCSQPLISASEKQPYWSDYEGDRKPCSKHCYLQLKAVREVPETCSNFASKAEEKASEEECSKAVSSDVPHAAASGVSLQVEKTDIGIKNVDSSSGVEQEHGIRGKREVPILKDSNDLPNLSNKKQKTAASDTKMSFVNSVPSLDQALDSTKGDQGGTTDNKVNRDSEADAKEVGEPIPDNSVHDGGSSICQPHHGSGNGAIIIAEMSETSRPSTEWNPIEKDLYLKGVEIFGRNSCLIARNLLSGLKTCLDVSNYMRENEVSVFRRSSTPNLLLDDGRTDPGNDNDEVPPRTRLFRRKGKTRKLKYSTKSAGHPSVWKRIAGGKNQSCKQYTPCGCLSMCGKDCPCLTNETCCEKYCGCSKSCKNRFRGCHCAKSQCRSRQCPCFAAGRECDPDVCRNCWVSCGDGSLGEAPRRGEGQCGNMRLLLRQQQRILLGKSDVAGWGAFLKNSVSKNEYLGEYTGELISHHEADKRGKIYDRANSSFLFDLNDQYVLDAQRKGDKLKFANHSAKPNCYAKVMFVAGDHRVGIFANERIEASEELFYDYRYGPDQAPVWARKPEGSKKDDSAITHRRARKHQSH

[2] = target: T2, EMF2, BiFC split YFP fusion (Arabidopsis thaliana), Q8L6Y4
T2 chain: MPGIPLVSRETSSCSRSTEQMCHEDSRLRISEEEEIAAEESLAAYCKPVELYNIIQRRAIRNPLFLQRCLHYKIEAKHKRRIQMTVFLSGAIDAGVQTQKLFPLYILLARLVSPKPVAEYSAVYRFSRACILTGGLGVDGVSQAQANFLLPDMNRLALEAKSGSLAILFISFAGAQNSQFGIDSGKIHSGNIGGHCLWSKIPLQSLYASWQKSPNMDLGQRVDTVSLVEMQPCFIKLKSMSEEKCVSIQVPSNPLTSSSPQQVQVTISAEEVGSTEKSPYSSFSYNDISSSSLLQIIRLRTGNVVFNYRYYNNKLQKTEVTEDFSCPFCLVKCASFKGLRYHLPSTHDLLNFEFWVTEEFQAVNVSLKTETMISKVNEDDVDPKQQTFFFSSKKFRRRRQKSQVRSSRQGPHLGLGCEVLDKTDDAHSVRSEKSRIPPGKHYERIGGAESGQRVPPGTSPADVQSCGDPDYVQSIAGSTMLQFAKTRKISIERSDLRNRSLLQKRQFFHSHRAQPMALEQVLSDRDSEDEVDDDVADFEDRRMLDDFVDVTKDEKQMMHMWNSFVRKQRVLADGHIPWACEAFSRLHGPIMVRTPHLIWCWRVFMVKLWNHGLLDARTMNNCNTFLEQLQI

[3] = target: T3, CLF, BiFC split YFP fusion (Arabidopsis thaliana), P93831
T3 chain: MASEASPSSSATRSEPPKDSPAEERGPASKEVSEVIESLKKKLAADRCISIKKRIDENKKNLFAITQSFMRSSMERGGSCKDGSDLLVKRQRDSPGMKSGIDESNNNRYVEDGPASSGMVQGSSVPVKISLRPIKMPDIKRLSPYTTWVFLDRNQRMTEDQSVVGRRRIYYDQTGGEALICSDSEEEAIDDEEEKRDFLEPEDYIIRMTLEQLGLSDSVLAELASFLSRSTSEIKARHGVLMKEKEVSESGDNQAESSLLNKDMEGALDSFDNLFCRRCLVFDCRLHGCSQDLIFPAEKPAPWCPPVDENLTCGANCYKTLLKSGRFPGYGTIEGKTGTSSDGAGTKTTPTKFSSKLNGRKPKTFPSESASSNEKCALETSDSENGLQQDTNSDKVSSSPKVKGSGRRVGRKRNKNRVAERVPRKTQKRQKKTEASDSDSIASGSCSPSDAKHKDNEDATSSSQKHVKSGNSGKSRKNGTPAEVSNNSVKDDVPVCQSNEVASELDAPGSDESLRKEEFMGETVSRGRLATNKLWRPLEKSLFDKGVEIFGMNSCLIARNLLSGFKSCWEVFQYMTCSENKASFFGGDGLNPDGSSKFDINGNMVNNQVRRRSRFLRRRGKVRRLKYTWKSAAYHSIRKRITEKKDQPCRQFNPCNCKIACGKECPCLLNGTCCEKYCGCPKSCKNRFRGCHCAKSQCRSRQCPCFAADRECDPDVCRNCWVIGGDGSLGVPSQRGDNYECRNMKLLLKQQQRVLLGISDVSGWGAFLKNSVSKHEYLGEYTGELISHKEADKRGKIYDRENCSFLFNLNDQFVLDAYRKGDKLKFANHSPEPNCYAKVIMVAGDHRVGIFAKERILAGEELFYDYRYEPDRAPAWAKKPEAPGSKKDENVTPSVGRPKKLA

[4] = target: T4, FIE, BiFC split YFP fusion (Arabidopsis thaliana), Q9LT47
T4 chain: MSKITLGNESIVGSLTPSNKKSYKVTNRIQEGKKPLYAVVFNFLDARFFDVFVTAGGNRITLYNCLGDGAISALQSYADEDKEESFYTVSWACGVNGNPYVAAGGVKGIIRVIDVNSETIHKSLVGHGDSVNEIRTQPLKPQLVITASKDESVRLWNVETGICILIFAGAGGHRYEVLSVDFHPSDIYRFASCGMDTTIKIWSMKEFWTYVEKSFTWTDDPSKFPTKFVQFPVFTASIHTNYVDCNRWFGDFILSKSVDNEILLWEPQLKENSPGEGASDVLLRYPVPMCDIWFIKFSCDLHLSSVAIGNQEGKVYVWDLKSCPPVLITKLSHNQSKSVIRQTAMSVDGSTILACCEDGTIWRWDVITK

binding [1]: no binding
binding [2]: no binding
binding [3]: no binding
binding [4]: no binding
B1: ALP1-nYFP (35S::ALP1-nYFP), BiFC fusion, Q94K49 1-396 (protein)
chain: MAPVKQKKKNKKKPLDKAKKLAKNKEKKRVNAVPLDPEAIDCDWWDTFWLRNSSPSVPSDEDYAFKHFFRASKTTFSYICSLVREDLISRPPSGLINIEGRLLSVEKQVAIALRRLASGDSQVSVGAAFGVGQSTVSQVTWRFIEALEERAKHHLRWPDSDRIEEIKSKFEEMYGLPNCCGAIDTTHIIMTLPAVQASDDWCDQEKNYSMFLQGVFDHEMRFLNMVTGWPGGMTVSKLLKFSGFFKLCENAQILDGNPKTLSQGAQIREYVVGGISYPLLPWLITPHDSDHPSDSMVAFNERHEKVRSVAATAFQQLKGSWRILSKVMWRPDRRKLPSIILVCCLLHNIIIDCGDYLQEDVPLSGHHDSGYADRYCKQTEPLGSELRGCLTEHLLR
